Test results from publication PMC5622495.
These are yes or no findings as the source states them, for the method shown. Binding seen in cells or lysates may run through a third protein. Some binding calls cover weakened binding; strength is not graded here.

The chains behind the UniProt entries cited, without tags or fusion partners.
UniProt Q6W2J9: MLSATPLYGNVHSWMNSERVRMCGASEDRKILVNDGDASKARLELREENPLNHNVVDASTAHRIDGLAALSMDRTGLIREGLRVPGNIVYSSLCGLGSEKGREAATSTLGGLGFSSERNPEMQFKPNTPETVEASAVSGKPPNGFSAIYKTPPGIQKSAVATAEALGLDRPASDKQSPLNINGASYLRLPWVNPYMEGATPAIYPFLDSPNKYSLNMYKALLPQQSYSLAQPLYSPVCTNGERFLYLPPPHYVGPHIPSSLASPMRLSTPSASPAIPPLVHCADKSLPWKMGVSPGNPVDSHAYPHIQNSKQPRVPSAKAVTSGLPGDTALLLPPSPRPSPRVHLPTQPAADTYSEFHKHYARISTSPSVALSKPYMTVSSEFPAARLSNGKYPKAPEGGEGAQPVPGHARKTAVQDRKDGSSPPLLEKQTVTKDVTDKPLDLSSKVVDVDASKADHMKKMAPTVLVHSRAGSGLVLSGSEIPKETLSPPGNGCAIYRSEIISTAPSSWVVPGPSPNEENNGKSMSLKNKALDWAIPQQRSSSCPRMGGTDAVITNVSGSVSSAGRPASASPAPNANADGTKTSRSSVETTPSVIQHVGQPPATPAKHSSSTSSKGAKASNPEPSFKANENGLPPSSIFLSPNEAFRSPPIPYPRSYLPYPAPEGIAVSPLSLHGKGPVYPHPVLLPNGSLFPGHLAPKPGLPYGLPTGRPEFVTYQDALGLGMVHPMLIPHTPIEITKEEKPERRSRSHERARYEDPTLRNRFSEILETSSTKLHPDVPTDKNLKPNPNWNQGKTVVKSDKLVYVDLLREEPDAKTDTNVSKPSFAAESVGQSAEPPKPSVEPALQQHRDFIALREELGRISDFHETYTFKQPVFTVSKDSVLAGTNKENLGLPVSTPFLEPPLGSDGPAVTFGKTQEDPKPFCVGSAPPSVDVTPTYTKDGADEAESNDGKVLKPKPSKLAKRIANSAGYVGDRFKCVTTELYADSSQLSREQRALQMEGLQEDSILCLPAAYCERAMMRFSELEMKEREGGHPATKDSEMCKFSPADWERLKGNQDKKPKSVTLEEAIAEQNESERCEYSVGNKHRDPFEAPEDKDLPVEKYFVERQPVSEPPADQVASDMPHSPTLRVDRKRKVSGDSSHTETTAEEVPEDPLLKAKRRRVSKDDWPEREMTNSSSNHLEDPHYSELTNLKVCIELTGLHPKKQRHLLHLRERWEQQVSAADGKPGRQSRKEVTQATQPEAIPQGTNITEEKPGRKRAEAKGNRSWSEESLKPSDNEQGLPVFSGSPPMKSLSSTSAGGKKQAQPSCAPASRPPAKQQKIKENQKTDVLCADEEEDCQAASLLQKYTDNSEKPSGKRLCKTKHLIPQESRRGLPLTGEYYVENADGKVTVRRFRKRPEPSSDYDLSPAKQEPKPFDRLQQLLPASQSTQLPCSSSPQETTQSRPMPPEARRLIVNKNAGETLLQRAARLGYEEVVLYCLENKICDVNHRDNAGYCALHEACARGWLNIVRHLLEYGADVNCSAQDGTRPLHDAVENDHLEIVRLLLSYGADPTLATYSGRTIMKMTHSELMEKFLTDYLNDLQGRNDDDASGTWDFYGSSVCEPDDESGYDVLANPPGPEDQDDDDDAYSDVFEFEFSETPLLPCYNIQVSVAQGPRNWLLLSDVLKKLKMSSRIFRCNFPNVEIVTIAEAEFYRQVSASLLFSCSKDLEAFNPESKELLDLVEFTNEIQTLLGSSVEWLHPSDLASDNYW
UniProt O15054: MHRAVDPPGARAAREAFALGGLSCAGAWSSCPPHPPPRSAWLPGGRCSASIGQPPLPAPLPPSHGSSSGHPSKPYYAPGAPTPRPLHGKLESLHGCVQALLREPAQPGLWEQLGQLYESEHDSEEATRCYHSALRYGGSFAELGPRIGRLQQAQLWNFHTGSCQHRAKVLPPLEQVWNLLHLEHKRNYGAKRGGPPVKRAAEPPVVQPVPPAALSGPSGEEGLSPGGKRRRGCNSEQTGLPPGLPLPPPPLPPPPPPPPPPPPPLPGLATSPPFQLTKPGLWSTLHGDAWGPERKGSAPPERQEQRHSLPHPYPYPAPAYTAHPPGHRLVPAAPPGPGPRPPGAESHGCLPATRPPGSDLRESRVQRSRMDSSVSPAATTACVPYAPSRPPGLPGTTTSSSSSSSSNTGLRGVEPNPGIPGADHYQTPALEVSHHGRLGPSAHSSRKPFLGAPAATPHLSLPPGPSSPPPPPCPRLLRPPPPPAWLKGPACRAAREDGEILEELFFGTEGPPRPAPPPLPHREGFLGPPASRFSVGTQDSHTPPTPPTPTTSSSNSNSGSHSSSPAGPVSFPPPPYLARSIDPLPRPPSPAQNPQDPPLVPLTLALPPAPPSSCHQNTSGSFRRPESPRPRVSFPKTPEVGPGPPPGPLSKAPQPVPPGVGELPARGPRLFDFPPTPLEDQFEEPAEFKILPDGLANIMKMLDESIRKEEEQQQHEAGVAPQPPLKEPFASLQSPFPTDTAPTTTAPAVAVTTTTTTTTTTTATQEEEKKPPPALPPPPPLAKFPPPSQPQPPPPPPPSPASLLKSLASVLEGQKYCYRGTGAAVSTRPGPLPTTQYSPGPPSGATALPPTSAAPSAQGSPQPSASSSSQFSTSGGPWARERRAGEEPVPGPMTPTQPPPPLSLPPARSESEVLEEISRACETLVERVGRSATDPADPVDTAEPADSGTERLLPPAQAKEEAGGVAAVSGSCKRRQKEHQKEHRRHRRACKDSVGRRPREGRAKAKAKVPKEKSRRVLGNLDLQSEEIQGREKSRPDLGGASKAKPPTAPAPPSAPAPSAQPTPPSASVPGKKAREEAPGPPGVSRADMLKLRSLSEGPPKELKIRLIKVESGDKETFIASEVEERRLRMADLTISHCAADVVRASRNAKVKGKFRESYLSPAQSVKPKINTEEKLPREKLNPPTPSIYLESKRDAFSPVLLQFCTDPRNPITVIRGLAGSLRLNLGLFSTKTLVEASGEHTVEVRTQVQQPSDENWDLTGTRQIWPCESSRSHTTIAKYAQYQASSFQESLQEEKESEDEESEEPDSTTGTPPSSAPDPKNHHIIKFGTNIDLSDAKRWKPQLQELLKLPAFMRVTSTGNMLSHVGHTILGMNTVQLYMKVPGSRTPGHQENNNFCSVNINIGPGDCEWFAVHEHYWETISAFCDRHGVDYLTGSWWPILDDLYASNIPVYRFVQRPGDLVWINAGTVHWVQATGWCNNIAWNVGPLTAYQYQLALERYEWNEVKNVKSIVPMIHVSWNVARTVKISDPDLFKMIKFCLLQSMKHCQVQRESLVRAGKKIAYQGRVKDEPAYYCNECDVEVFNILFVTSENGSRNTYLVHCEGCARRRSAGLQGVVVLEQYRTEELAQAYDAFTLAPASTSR

Molecular target: HA-BCOR (human full-length BCL6 co-repressor with an HA tag) (human) (UniProt Q6W2J9)
Test: co-IP; HA-BCOR-transduced PDLSCs lysed in cold RIPA buffer; anti-HA agarose (HA-Tag Co-IP kit), 4 °C at least 1 hour, TBS-T washes; Western blot for KDM6B

binding: binds
Substance: lysine (K)-specific demethylase 6B (KDM6B) (from UniProt O15054 1-1643)
